{
  "source": "patent US20110201562A1",
  "about": "“FORMULATIONS AND METHOD FOR TREATING BALDNESS” (SEDERMA, priority 2005, published 2011)",
  "format_in_all_cases": "cell-based",
  "key": {"collagen IV": {"system": "collagen IV", "test": "Detection of collagen IV in cultured hair follicles (immunofluorescence)", "details": "after 14 days; Minoxidil 2 ppm, biotinyl-GHK concentration not stated"}, "[1]": {"system": "keratinocytes of the root sheath of cultured hair follicles", "test": "Anti-aging activity on the root sheath (Ki67 count)", "details": "2 ppm medium, Day 14"}, "laminin 5": {"system": "laminin 5", "test": "Detection of laminin 5 in cultured hair follicles (immunofluorescence)", "details": "2 ppm medium, after 14 days"}},
  "note": "For at least one compound, name, drawing or mass did not settle the structure.",
  "data": [
    {"smiles": "Nc1cc(N2CCCCC2)nc(N)[n+]1[O-]", "note": "[Minoxidil®, Minoxidil, reference compound]", "values": [
      {"measurement": "collagen IV band/density in root sheath and dermal papilla", "setting": "collagen IV", "result": "loss of collagen IV density in the root sheath as well as the dermal papilla"},
      {"measurement": "proliferative activity (count of Ki67 marker cells, lower root sheath)", "setting": "[1]", "result": "maintained proliferative activity"},
      {"measurement": "laminin 5 band", "setting": "laminin 5", "result": "retained a thick and strip-like laminin 5 band"}
    ]}
  ]
}
